Assay results taken from patent US12667584B2, “Adenosine analog and its use in regulating the circadian clock” (NATIONAL INSTITUTE OF BIOLOGICAL SCIENCES, BEIJING, priority 2017, dated 2026).
Some entries share one result that the patent states for a list of compounds.

Assays:
Per2:luc U2OS cells = test: Real-time monitoring of circadian oscillation in lumicycle, Per2:luc U2OS cells; type: cell-based, human
Procedure: Cell culture, drug treatment and Real-Time Monitoring of Circadian Oscillations: Per2-Luc reporter U2OS cells (D15) and Bmal1-Luc reporter U2OS cells (C26) cells were kept in DMEM medium (Gibco), supplemented with 10% FBS (Gibco) and 1% penicillin streptomycin mixture (Gibco). For Circadian Oscillation monitored with lumicycle (Actimetrics), cells were seeded at the density of 10^6 per 3.5 cm dish (Z688851-30EA). The medium was changed into XM medium (PH7.2, 10 mM HEPES, 350 mg/I bicarbonate, 1×B27, 100 IU/ml penicillin, 100 μg/ml streptomycin, 10 μg/ml gentamycin, and 100 μM d-Luciferin) 2 days after cell seeding. 3.5 cm dish was then sealed with high-vacuum grease (Dow Corning) and microscope cover glass, and transferred into lumicycle which was placed in an incubator (37° C.). For Drug treatment, 3.5 cm dish was taken out from lumicycle quickly at indicated time. After chemical was added into the medium, the dish was sealed again and put back into lumicycle. For Circadian Oscillation monitored with Tecan (Perkinelmer), cells were seeded at the density of […] per well for 384-well plate (CLS3610-48EA). 2 days later, the medium was changed into premixed XM medium with different chemicals with or without pentostatin (5 μg/ml). The plate was then sealing with sealing film (Sangon Biotech) and put into Tecan. […]

[1] = system: Per2-Luc reporter U2OS cells (D15); test: Circadian phase shift cell assay in D15 cells, 384 well plate, Tecan, with or without pentostatin; type: cell-based, human; conditions: positive hits

SMILES | phase change of Per2-dLuc (Per2:luc U2OS cells) | shift the circadian clock at the concentration [1]
Nc1ncnc2c1ccn2[C@@H]1O[C@H](CO)[C@@H](O)[C@H]1O [7-deazaadenosine, tubercidin] | up to 12 h | –
Nc1ncnc2c1ccn2[C@@H]1O[C@H](CO)C(O)C1O (some centres unmarked) [NQZ-115] | – | less than 100 μM
